Laboratory results taken from publication PMC3325191.
No constants are given. Whether binding was seen depends on the method and setting. Binding seen in cells or lysates may run through a third protein. Some binding calls cover weakened binding; strength is not graded here. Where a sequence is shown, tags or fusion partners need not be part of it. Each block holds one binder with its values, some of them ahead of it.

Biological target: T1, GST-NHR-49 fusion protein (C. elegans) (UniProt O45666)
T1 sequence: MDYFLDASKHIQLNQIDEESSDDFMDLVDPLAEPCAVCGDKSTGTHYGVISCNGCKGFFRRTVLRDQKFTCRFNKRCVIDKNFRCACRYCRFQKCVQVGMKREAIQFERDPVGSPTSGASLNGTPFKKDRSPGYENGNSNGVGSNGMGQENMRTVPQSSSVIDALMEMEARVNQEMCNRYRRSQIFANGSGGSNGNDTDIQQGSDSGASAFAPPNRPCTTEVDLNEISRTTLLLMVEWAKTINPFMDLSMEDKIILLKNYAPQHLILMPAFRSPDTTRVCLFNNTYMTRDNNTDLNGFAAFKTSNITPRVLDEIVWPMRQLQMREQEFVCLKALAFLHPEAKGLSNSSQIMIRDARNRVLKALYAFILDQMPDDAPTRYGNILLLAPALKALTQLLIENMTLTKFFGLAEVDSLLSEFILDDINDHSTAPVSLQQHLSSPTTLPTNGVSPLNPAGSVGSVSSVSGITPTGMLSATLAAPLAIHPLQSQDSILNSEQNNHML
Test: pull-down; purified GST-NHR-49 on glutathione-Sepharose 4B beads incubated with in vitro translated 35S-methionine-labeled protein for 90 minutes at 37°C, washed in binding buffer; SDS-PAGE and autoradiography; GST alone as control; only the target purified

binding: binds
B1: in vitro translated 35S-methionine-labeled NHR-66 (protein, UniProt H2KYJ8 1-733)
chain: MPPINEPTATTTSASSVWQGMTQLKSQVDLINIARGILSTPATTSTSCLDIQNSTPIIGSLASGKSQTPILTATMTPQIGLTGLGSLTSLPPELLLQFARLDGFNLLPAVGSPAIPSSSSCSEPSTSQASTVVSAPTLPPPSPLTSLPQKPAPLMPSGHVTTVDQQNRQQHQQQQRQQQQAQQQNSMARKYSMDTIQHHTMQHPHQLQYIPNHFMTASTDVFAAMDMSQKQSSPPGIFKIVAAKNEPSSSSNSQPGTPAMGDRRAVPACAICGTDSTGIHFGVDACAACSAFFRRTVVLNKDYSCNKGGKCTVVKDGSAGQKCRACRFRKCISSGMDKNSVQHRRDAIGKYSAGVKRELSPDAEFEPSAKVSTVSEPSTSSGPSGGFNQNVSSPAGIPRVPSTLRTTQASTCMNSACGQKSVLHELICRQNFLTEQRQLFYAGCLGDWFRKPSSIENQTLSELTDFSSCMFHLWKIEPRLAADFMNRNRYLDPLPIVEKLKIYRNFVIMRQSVEEPYLTWRHGGLEKRWFVMPNNTYIDFNNIAKYFENGALKDLKLDYETTTNLFLPSFTHAMDTIGEKMKKNNITETELTILLGLVLLDPGIYGIHESTRKFLKRIRDQLIHDVYMYYEDEMSHLYDPEIRMADIFMLVAAIKIHSIKTSENMHMLRVFDLIPADACFNQMLDVESVNVSPDGQKDSEAEQGPSPVSVPEAARGSYQDDDMPPVLEKNCDL
modifications: 35S-methionine labeled

binding: binds
B2: in vitro translated 35S-methionine-labeled NHR-80 (protein, UniProt Q8ITW8 1-504)
chain: MTAEGRYLEIRKKTVKSKFRFPASSSSTRCLICSAQATGFHFEAQSCSACAAFFRRTVALTKSFKCITGRDDCNVHYSMHQICRSCRHKKCLSNGMKPGGVQPKKPNIETGRAFFTKSGLKRNKKFANVSPQTADEQKLVVEGVKVPKIEVQEPNSLEDLEQDNEFVIKTPTPRKISSSTSFSASTTTNYSTPGPSPMAPCSAGPDVLTLFIREEMKLGERRRLLFSERAVGTLLGQNKHCPYKKEDIKPLVFHDFRLTIKTHIMLVYEWLQTWPELQELDDFDRMSLLRKAVLIHFLLDPSFLSYQIGEPDKLIMQNGGFISTADHHGVGWEDETDISGENKRKYYVPIMKQITDEIMPAMEAMKITFEEFVALKALACFQGGFENVSEAKRHLITQQVNRIMTSLHTHYLENSEEKIAERFGTIVLMLSNIFTAGNDFVQNHREIDIFHIWDLDKLVLQLLNLDKIMETEARETAEKRAMRNGINVVNNNNDVLLGQAKLEK
modifications: 35S-methionine labeled

binding: no binding
B3: in vitro translated 35S-methionine-labeled NHR-13 (protein, UniProt Q9N4Q7 1-425)
chain: MPTNPNSCEVCSSSSNSSCNHFGARTCKACAAFFRRTVSMKLDYQCIDQPDACRVHCDSRVICRFCRLKKCHDIGMKPLLVKSKNERKNYIRISKGLIRKRSVLGDNVKENSEEIQNDDDPQESDAEMENESTPGPSSEPSENVSAENQETVTKFLKLEASMCDRRRLLYAETPISIVLESGKEWPYENAPLKMFDYKLSQGMSKHDFVMIMDYARGMPGFDEMNYADSVFCYRLVCAVDFVINSAYYTYKRGIEHNELVLSDGTFIPMVPTPLTGYEENANLLFQSQDDLMKFRTLMPLILHQWETCVPFAQLAPSHEEFCLLKAICVWHVSYYRLSEDGRRIAIAQRNRLIRALHHVCHLDSDDVGERFGNVMMALNYIMVNIRHVVSSFVMISFFGIINVDKSMISLTSFWNKSDTSTAPSL
modifications: 35S-methionine labeled

binding: binds
B4: in vitro translated 35S-methionine-labeled NHR-49 (protein, UniProt O45666 1-501)
chain: T1 sequence
modifications: 35S-methionine labeled
